According to the supplement of paper PMC10849652:
The other results are listed elsewhere or left out. Residues, ends and D or L forms follow the SMILES beside them. *: point of attachment. Cbz = O=C(OCc1ccccc1)*

Chains of the proteins cited; added tags and fusions are not shown. Lines headed by an entry give the natural chain unless they say otherwise; changes in a name come on top.
UniProt Q53HC9: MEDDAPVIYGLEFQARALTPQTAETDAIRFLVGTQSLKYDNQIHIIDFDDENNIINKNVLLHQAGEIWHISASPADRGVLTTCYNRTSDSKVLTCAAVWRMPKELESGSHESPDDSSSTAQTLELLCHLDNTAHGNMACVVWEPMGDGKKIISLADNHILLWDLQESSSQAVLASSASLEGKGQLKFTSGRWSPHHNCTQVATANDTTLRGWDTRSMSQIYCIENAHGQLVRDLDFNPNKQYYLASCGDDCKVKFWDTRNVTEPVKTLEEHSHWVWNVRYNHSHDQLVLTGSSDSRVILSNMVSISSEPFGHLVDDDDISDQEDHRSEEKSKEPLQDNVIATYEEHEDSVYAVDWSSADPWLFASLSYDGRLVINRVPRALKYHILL
UniProt P05198, whole entry, looked up: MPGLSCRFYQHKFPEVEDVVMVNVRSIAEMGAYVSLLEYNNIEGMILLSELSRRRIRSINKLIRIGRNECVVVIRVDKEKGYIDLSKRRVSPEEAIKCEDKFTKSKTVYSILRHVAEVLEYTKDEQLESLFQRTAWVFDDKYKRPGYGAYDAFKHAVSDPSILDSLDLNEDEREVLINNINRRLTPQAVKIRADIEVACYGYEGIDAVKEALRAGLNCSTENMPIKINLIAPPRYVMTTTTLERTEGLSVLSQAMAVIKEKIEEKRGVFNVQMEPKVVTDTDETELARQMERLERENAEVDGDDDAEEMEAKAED
UniProt P49770: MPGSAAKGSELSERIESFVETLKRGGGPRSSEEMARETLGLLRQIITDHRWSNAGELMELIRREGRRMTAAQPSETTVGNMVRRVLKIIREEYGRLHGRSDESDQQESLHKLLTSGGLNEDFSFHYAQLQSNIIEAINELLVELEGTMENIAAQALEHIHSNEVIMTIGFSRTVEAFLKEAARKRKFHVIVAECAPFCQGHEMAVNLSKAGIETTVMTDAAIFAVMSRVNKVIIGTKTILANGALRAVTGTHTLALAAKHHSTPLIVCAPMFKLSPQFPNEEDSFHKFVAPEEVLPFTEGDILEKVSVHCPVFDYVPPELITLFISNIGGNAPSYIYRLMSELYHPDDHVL
UniProt P55884, whole entry, looked up: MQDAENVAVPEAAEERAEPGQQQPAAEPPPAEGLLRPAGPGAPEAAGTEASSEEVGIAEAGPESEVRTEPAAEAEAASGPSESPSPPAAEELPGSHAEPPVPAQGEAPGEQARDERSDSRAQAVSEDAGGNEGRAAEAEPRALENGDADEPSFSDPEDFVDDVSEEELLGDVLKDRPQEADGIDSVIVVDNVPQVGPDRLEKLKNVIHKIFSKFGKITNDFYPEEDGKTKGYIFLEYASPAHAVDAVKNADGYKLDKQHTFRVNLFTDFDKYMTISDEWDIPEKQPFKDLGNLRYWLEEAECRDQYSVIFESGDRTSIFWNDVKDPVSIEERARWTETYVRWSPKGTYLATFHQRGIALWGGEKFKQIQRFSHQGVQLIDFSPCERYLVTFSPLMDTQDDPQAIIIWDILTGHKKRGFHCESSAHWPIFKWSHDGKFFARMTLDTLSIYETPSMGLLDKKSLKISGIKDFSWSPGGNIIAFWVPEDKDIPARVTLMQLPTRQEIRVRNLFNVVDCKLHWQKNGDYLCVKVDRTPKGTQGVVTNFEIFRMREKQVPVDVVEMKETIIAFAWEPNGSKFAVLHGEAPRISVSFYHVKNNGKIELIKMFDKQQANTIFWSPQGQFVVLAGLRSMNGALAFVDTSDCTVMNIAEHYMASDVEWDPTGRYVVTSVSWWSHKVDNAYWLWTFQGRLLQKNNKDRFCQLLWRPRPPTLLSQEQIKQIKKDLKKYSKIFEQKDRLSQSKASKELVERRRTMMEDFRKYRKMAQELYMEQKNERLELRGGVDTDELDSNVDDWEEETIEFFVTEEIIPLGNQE
UniProt O75822, whole entry, looked up: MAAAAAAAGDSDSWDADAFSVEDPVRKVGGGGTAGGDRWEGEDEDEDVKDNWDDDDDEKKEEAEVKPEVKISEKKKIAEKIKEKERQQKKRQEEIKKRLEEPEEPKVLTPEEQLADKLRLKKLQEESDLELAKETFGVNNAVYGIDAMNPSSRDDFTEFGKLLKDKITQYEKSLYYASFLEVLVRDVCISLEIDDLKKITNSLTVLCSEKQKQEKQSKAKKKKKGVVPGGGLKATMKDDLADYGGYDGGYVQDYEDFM
UniProt Q9UI10, whole entry, looked up: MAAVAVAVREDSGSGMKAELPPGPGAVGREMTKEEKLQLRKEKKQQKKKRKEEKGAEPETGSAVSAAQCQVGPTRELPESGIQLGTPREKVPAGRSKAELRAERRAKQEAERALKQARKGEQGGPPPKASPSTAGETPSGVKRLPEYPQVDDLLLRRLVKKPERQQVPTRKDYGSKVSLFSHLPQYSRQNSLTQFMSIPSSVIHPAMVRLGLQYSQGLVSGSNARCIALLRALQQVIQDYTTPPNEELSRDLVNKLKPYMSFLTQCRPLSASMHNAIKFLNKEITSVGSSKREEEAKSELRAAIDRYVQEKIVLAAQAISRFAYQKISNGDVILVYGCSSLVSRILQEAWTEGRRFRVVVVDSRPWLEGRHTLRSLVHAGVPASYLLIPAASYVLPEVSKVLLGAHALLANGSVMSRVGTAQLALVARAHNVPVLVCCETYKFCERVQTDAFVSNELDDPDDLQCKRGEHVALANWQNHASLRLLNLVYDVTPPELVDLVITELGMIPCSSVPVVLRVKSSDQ
UniProt Q9BW60: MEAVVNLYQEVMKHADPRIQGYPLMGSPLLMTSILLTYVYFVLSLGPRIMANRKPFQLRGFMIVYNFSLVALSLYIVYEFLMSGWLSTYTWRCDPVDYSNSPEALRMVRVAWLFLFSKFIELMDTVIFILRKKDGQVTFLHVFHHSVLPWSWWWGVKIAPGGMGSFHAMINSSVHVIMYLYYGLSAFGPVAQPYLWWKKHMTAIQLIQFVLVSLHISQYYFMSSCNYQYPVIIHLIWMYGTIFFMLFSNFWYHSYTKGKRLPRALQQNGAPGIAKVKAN
UniProt P20042, whole entry, looked up: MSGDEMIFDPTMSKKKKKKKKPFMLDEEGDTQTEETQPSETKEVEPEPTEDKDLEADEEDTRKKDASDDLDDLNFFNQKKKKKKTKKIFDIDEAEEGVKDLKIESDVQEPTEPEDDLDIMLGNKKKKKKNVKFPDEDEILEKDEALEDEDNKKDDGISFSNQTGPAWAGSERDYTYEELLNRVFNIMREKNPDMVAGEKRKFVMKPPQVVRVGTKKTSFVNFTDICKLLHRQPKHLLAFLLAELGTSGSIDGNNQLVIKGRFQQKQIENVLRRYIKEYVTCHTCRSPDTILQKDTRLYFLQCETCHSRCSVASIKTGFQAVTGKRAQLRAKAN
UniProt Q8N3D4: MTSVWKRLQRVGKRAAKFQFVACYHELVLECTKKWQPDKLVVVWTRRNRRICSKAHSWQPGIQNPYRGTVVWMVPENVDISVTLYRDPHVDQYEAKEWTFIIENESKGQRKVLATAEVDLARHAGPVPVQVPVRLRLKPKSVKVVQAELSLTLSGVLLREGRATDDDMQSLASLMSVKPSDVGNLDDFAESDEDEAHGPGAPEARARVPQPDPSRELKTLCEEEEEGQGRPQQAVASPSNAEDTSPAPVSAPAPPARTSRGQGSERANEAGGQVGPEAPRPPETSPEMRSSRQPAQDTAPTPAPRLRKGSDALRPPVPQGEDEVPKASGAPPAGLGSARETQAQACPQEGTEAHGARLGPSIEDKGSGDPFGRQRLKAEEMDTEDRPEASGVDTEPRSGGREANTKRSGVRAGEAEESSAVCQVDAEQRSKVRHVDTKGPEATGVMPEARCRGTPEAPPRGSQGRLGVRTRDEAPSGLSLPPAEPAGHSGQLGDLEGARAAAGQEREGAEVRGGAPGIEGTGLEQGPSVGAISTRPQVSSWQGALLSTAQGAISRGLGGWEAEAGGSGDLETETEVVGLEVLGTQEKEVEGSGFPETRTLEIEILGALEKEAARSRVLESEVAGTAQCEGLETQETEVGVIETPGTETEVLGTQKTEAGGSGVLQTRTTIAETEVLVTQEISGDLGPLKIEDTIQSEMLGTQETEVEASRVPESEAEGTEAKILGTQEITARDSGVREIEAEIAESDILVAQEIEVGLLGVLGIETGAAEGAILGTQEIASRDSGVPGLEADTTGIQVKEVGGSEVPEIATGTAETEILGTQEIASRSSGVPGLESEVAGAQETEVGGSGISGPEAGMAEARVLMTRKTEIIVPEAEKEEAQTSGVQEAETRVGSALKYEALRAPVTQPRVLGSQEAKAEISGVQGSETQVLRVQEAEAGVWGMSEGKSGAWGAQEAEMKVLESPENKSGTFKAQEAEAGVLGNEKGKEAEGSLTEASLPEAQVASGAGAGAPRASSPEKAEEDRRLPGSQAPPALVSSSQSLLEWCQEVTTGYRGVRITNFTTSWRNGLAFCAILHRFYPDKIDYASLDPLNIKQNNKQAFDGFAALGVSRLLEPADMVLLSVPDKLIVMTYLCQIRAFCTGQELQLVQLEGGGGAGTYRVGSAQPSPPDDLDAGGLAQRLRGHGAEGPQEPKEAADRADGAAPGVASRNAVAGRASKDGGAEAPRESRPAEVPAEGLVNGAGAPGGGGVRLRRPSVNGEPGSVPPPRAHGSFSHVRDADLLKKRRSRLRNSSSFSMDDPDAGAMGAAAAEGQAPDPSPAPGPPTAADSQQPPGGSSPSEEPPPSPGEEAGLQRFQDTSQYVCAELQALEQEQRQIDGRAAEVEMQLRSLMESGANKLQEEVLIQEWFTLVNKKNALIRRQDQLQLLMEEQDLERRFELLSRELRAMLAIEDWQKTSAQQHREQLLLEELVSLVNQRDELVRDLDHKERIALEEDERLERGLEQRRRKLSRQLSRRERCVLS
UniProt P78344: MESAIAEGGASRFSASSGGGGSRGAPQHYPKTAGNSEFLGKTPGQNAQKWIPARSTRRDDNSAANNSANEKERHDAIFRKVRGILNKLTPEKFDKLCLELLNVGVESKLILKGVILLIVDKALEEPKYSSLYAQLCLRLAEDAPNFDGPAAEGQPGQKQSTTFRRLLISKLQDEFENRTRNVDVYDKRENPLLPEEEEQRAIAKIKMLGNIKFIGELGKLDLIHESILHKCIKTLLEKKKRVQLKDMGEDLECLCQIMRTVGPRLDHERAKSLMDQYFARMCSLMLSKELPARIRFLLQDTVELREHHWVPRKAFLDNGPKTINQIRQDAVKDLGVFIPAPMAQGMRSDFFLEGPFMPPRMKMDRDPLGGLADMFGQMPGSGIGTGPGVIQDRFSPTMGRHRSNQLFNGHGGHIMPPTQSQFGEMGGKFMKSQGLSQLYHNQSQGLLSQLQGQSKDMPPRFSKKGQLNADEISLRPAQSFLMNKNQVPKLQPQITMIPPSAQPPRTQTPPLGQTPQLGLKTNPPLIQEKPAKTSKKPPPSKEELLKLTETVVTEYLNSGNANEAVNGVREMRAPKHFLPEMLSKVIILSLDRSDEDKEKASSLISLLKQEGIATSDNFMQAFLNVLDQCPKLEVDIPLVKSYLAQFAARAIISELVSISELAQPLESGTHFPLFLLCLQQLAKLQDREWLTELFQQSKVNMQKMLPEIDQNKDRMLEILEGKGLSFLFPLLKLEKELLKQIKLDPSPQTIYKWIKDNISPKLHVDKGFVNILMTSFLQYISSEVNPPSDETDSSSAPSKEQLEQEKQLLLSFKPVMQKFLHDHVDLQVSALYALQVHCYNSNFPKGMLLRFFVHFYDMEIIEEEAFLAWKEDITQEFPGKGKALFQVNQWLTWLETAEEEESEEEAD
UniProt P38919, whole entry, looked up: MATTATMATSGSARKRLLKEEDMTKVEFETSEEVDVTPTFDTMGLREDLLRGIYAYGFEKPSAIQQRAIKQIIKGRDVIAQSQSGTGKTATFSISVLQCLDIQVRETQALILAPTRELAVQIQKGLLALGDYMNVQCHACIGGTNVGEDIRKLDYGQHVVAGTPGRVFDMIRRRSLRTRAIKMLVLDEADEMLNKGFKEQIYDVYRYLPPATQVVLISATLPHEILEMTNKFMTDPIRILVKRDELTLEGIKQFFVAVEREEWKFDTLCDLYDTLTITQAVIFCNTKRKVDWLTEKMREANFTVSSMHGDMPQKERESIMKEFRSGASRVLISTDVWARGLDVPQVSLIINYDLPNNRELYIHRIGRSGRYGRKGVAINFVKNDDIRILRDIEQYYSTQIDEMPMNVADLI
UniProt Q9NR50: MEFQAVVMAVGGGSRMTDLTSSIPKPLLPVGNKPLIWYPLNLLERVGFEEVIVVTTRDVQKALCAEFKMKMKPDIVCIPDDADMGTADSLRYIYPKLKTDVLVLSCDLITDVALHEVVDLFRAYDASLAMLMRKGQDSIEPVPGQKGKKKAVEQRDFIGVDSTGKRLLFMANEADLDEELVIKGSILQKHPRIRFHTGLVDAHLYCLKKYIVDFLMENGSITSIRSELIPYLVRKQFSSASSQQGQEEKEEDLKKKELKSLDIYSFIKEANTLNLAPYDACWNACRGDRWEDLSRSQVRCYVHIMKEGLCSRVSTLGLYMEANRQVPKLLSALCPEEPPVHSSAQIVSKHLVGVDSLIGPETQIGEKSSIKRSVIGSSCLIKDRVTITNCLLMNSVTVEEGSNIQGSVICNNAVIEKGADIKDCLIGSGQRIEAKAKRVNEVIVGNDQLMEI

Columns and labels:
Assay in all cases: log2 fold change, soluble protein after heating vs DMSO (PISA); higher = thermal stabilisation; K562 cells, 10 uM, 30 min; active = over 0.2 and 3.5 SD of the protein, either way, in both replicates (recomputed)
[1] = compound: C1COCCN1CCN2C3=CC=CC=C3N=C2NC(=O)C4=CC(=CC=C4)[N+](=O)[O-] [IRAK-1-4 Inhibitor I]
In short: (§1)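 Thermal stability values are relative to control samples and come from duplicates. They are expressed as log2 fold changes. For measurement, K562 cells (2×10^6 cells/mL) received 10 μM compound for 30 min, and aliquots were heated for 3 min over 48°C-58°C, pooled, and extracted at 4°C in PBS with 0.5% NP-40. Soluble protein, the supernatant after 21,000xg for 90 min, was quantified by TMTpro 16plex LC-MS/MS with equalised channel sums.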

[2] = compound: C=CC(=O)N1CCC[C@@H](n2nc(-c3ccc(Oc4ccccc4)cc3)c3c(N)ncnc32)C1 [ibrutinib]
In short: as §1

[3] = compound: CC(=O)c1cnc2ccc(-c3cc(Cl)c(O)c(Cl)c3)nc2c1N[C@H]1CC[C@H](CN(C)C)CC1
In short: as §1

[4] = compound: CC(C)(C)Cn1c(N)nc2ccc(-c3[nH]c(C(C)(C)C)nc3-c3ccc(F)cc3)nc21 [ralimetinib]
In short: as §1

[5] = compound: CC(C)(O)CC(=O)NCCn1ccc2ncnc(Nc3ccc(Oc4cccc(C(F)(F)F)c4)c(Cl)c3)c21
In short: as §1

[6] = compound: CC(C)C1=C2N=C(C=C(N2N=C1)NCC3=CC=CC=C3)NCCCCCCN
In short: as §1

[7] = compound: CC(C)C[C@@H](C=O)NC(=O)[C@H](CC(C)C)NC(=O)[C@H](CC(C)C)NC(=O)OCc1ccccc1
In short: as §1

[8] = compound: CC(C)N(C[C@H]1O[C@@H](n2cnc3c(N)ncnc32)[C@H](O)[C@@H]1O)[C@H]1C[C@@H](CCc2nc3cc(C(C)(C)C)ccc3[nH]2)C1 [pinometostat]
In short: as §1

[9] = compound: CC1=C(C(CC(=O)N1)C2=CC=C(C=C2)C(F)(F)F)C(=O)NC3=C(C=C4C(=C3)C=NN4)F
In short: as §1

[10] = compound: CC1=C(C2=C(C=C1)C(=O)C3=CC=CC=C3N2CCCN)C
In short: as §1

Measured: log2 fold change

EMC8 (UniProt O43402)
inactive: [1] 0.089 | [2] 0.012 | [3] 0.01 | [4] -0.026 | [5] -0.029 | [6] 0.032 | [7] -0.007 | [8] 0.01 | [9] -0.013 | [10] 0

EIF2AK4 (UniProt Q9P2K8)
inactive: [1] -0.101 | [2] -0.004 | [3] -0.231 | [4] 0.132 | [5] -0.025 | [6] -0.134 | [7] 0.016 | [8] 0.106 | [9] 0.045 | [10] -0.139

ENDOG (UniProt Q14249)
inactive: [1] -0.034 | [2] -0.05 | [3] -0.029 | [4] 0.03 | [5] -0.02 | [6] -0.003 | [7] 0.001 | [8] -0.022 | [9] -0.037 | [10] 0.187

EMG1 (UniProt Q92979)
inactive: [1] -0.062 | [2] 0.046 | [3] 0.054 | [4] 0.097 | [5] 0.041 | [6] 0.11 | [7] 0.028 | [8] 0.046 | [9] -0.018 | [10] 0.104

EIPR1 (UniProt Q53HC9)
inactive: [1] 0.025 | [2] 0.006 | [3] 0.024 | [4] -0.006 | [5] 0.055 | [6] -0.01 | [7] -0.07 | [8] -0.031 | [9] -0.012 | [10] -0.003

EIF2S1 (UniProt P05198)
inactive: [1] -0.116 | [2] 0.002 | [3] 0.008 | [4] 0.031 | [5] 0.03 | [6] 0.039 | [7] 0.051 | [8] 0.073 | [9] 0.011 | [10] 0.172

EIF2B2 (UniProt P49770)
inactive: [1] 0.002 | [2] -0.016 | [3] -0.004 | [4] -0.002 | [5] -0.038 | [6] -0.074 | [7] -0.01 | [8] 0.018 | [9] -0.032 | [10] 0.011

ENO3 (UniProt P13929)
inactive: [1] 0.025 | [2] 0.088 | [3] 0.04 | [4] 0.054 | [5] -0.062 | [6] 0.011 | [7] -0.044 | [8] 0.007 | [9] 0.116 | [10] -0.041

EIF2A (UniProt Q9BY44)
inactive: [1] -0.026 | [2] 0.024 | [3] 0.044 | [4] 0.083 | [5] 0.016 | [6] 0.043 | [7] 0.01 | [8] 0.072 | [9] -0.019 | [10] -0.136

ELOF1 (UniProt P60002)
inactive: [1] 0 | [2] 0.036 | [3] 0.325 | [4] 0.071 | [5] -0.067 | [6] 0.071 | [7] -0.219 | [8] -0.127 | [9] 0.088 | [10] -0.018

EIF3B isoform 2 (UniProt P55884)
inactive: [1] -0.127 | [2] -0.059 | [3] 0.032 | [4] 0.089 | [5] 0 | [6] -0.196 | [7] 0.075 | [8] 0.209 | [9] 0.046 | [10] -0.093

EIF3J (UniProt O75822)
inactive: [1] 0.118 | [2] -0.031 | [3] 0.035 | [4] 0.093 | [5] -0.031 | [6] -0.007 | [7] -0.079 | [8] -0.007 | [10] -0.025

EIF2B4 isoform 2 (UniProt Q9UI10)
inactive: [1] -0.029 | [2] -0.007 | [3] -0.03 | [4] 0.054 | [5] -0.018 | [6] -0.11 | [7] 0.047 | [8] 0.093 | [9] 0.01 | [10] 0.014

ELOVL1 (UniProt Q9BW60)
active: [6] -0.628
inactive: [1] 0.079 | [2] -0.006 | [3] 0.018 | [4] 0.029 | [5] -0.197 | [7] 0.036 | [8] 0.063 | [10] 0.099

EIF5A isoform 2 (UniProt P63241)
inactive: [1] 0.004 | [2] -0.025 | [3] 0.027 | [4] 0.063 | [5] -0.093 | [6] -0.153 | [7] -0.059 | [8] -0.027 | [9] -0.068 | [10] 0.045

EIF2S2 (UniProt P20042)
inactive: [1] -0.069 | [2] 0.035 | [3] 0.032 | [4] 0.099 | [5] 0.071 | [6] 0.077 | [7] 0.077 | [8] 0.111 | [9] 0.03 | [10] 0.118

EEF1D isoform 2 (UniProt P29692)
inactive: [1] -0.038 | [2] -0.039 | [3] 0.012 | [4] 0.026 | [5] -0.006 | [6] -0.051 | [7] 0.029 | [8] 0.065 | [10] 0.039

ENTPD5 (UniProt O75356)
inactive: [1] 0.019 | [2] -0.015 | [3] -0.042 | [4] -0.031 | [5] -0.045 | [6] -0.012 | [7] -0.008 | [8] -0.034 | [9] -0.056 | [10] -0.013

EMC4 (UniProt Q5J8M3)
inactive: [1] -0.007 | [2] -0.015 | [3] -0.012 | [4] -0.118 | [5] -0.049 | [6] 0.056 | [7] 0.007 | [8] -0.002 | [9] 0.043 | [10] 0.104

EIF3M (UniProt Q7L2H7)
inactive: [1] -0.058 | [2] 0.007 | [3] 0.018 | [4] 0.113 | [5] -0.071 | [6] -0.133 | [7] -0.011 | [8] 0.048 | [9] 0.056 | [10] -0.07

ENOSF1 (UniProt Q7L5Y1)
inactive: [1] 0.025 | [2] 0.038 | [3] -0.036 | [4] -0.01 | [5] -0.087 | [6] -0.021 | [7] -0.043 | [8] -0.02 | [9] 0.004 | [10] -0.019

EFCAB14 (UniProt O75071)
inactive: [1] -0.016 | [2] 0.043 | [3] -0.196 | [4] 0.135 | [5] -0.009 | [6] -0.127 | [7] -0.063 | [8] -0.061 | [10] 0.006

ELMOD2 (UniProt Q8IZ81)
inactive: [1] 0.048 | [2] 0.001 | [3] 0.016 | [4] -0.039 | [5] 0 | [6] 0.02 | [7] 0.087 | [8] -0.022 | [9] -0.022 | [10] 0.007

EHBP1L1 (UniProt Q8N3D4)
inactive: [1] -0.044 | [2] -0.054 | [3] -0.077 | [4] 0.083 | [5] -0.001 | [6] -0.034 | [7] 0.05 | [8] 0.086 | [10] 0.028

EIF4G2 (UniProt P78344)
inactive: [1] -0.112 | [2] -0.065 | [3] 0.018 | [4] 0.224 | [5] 0.005 | [6] -0.352 | [7] 0.15 | [8] 0.425 | [9] -0.074 | [10] -0.046

ENO2 (UniProt P09104)
inactive: [1] 0.028 | [2] 0.066 | [3] 0.011 | [4] 0 | [5] 0.01 | [6] 0.092 | [7] -0.04 | [8] 0.004 | [9] 0.041 | [10] -0.012

EIF4A3 (UniProt P38919)
inactive: [1] 0 | [2] -0.017 | [3] 0.002 | [4] -0.046 | [5] -0.017 | [6] 0.075 | [7] 0.003 | [8] 0.005 | [9] -0.021 | [10] 0.138

ENSA isoform 3 (UniProt O43768)
inactive: [1] 0.086 | [2] 0.002 | [3] 0.014 | [4] -0.072 | [5] 0.013 | [6] 0.085 | [7] 0.015 | [8] -0.06 | [9] 0.053 | [10] -0.034

EIF2B3 (UniProt Q9NR50)
inactive: [1] -0.024 | [2] -0.009 | [3] -0.015 | [4] 0.053 | [5] -0.004 | [6] -0.101 | [7] 0.058 | [8] 0.071 | [9] 0.035 | [10] 0

ELP3 (UniProt Q9H9T3)
inactive: [1] 0.002 | [2] -0.001 | [3] -0.012 | [4] -0.011 | [5] -0.09 | [6] 0.017 | [7] -0.047 | [8] -0.007 | [9] 0.05 | [10] 0.026
